The supplement of paper PMC7646827
Many values rest on one well or one pass, so single values are uncertain.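 All cells are established human bladder cancer lines, one derived from a patient-derived xenograft. A luminescent ATP assay measured viability as percent inhibition relative to vehicle across seven dilutions. The paper rates scores above 59 very active, 30–59 active, 21–29 semi-active, 9–20 low active, below 9 inactive.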

Experiments:
Assay in all cases: drug sensitivity score DSS3 (score 0-100); higher = more sensitive; extreme values may be limits of the assay
Conditions in all cases: culture: 3D, ultra-low attachment; treatment time: 5 days
UM-UC-17 = tested on: UM-UC-17
SW780 = tested on: SW780
UM-UC-18 = tested on: UM-UC-18
5637 = tested on: 5637
UM-UC-1 = tested on: UM-UC-1
UM-UC-12 = tested on: UM-UC-12
TCCSUP = tested on: TCCSUP
UM-UC-3 = tested on: UM-UC-3
UM-UC-6 = tested on: UM-UC-6
BC8149 = tested on: BC8149
J82 = tested on: J82
UM-UC-15 = tested on: UM-UC-15
SCaBER = tested on: SCaBER
UM-UC-5 = tested on: UM-UC-5
T-24 = tested on: T-24
UM-UC-9 = tested on: UM-UC-9
UM-UC-14 = tested on: UM-UC-14

Row | Compound | drug sensitivity score DSS3 (UM-UC-17) | drug sensitivity score DSS3 (SW780) | drug sensitivity score DSS3 (UM-UC-18) | drug sensitivity score DSS3 5637 | drug sensitivity score DSS3 (UM-UC-1) | drug sensitivity score DSS3 (UM-UC-12) | drug sensitivity score DSS3 (TCCSUP) | drug sensitivity score DSS3 (UM-UC-3) | drug sensitivity score DSS3 (UM-UC-6) | drug sensitivity score DSS3 (BC8149) | drug sensitivity score DSS3 (J82) | drug sensitivity score DSS3 (UM-UC-15) | drug sensitivity score DSS3 (SCaBER) | drug sensitivity score DSS3 (UM-UC-5) | drug sensitivity score DSS3 (T-24) | drug sensitivity score DSS3 (UM-UC-9) | drug sensitivity score DSS3 (UM-UC-14)
1 | Cc1ccc(-c2cc(C(F)(F)F)nn2-c2ccc(S(N)(=O)=O)cc2)cc1 [Celecoxib] (max dose 10000 nM) | 0 | 0 | 0 | 4.61 | 0 | 0 | 5.92 | 0 | 0 | 0.644 | 0 | 0 | 0 | 0 | 0 | 0 | 0.717
2 | C=CC(=O)Nc1cc(N2CCN(CC)CC2)ccc1Nc1cc(N(C)C(=O)Nc2c(Cl)c(OC)cc(OC)c2Cl)ncn1 [H3B-6527] (max dose 10000 nM) | 0 | 0 | 0 | 0 | 0 | 0 | 0 | 0 | 0 | 0 | 0 | 2.49 | 0 | 0 | 0 | 0 | 0
3 | OC[C@H]1O[C@@H](c2ccc(Cl)c(Cc3ccc(O[C@H]4CCOC4)cc3)c2)[C@H](O)[C@@H](O)[C@@H]1O (max dose 10000 nM) | 0 | 0 | 0 | 0 | 18.1 | 0 | 0 | 0 | 0 | 0 | 0 | 0.904 | 0 | 0 | 0 | 0 | 0
4 | Nc1ncn([C@@H]2O[C@H](CO)[C@@H](O)[C@H]2O)c(=O)n1 [Azacitidine] (max dose 10000 nM) | 0 | 0 | 0 | 0 | 0 | 0 | 0 | 0 | 0.342 | 0.715 | 0 | 0 | 0 | 0 | 0 | 0 | 0.807
5 | NS(=O)(=O)NCCNc1nonc1/C(=N/O)Nc1ccc(F)c(Br)c1 (max dose 10000 nM) | 0 | 1.22 | 16.4 | 10.4 | 1.36 | 6.8 | 1.34 | 8.77 | 0.113 | 5.43 | 0 | 7.41 | 3.53 | 0.85 | 0 | 5.22 | 0.533
6 | CCN(CC)C(=S)SSC(=S)N(CC)CC [Disulfiram] (max dose 10000 nM) | 0 | 0 | 0 | 0 | 0 | 0 | 0 | 0 | 0 | 0 | 0 | 0 | 0 | 0 | 0 | 0 | 0
